Assay results published in publication PMC7735993.

By UniProt entry, the sequences of proteins in these tests, tags left out. Residues count along the entry.
UniProt Q9LU44, 1-562: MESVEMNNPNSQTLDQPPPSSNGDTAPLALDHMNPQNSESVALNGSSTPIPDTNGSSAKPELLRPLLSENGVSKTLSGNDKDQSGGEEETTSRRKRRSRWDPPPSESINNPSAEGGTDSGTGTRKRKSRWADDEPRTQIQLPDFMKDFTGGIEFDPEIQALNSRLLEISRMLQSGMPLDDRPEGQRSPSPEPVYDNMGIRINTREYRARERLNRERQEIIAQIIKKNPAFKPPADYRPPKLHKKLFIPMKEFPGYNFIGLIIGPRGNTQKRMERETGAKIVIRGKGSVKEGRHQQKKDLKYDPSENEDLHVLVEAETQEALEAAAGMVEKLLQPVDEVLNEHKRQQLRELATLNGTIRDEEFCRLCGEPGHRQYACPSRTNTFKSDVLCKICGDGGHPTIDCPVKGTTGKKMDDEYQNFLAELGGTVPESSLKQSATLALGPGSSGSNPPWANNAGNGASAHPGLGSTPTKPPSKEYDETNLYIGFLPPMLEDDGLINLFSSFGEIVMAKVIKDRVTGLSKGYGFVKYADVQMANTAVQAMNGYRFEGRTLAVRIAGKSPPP

Target: His-AtSF1(1-562) (Arabidopsis thaliana) (UniProt Q9LU44)
Experiment: EMSA
Details: positive control; LightShift Chemiluminescent RNA EMSA kit, 23 C, 30 min, 8% native PAGE; salt and pH not stated; recombinant protein; residues 1-562; protein details: His; label: 3' biotin

Sequence: UAUACUAACAAUUUUUUUUU [human BPS-Py 20-mer]
- binding result: binds

The exact form of at least one protein or probe is not confirmed. At least one verdict rests on a figure or table, not on a statement of the authors.
